For 62 compounds, cell number change and AC50 results are on record in PubChem BioAssay AID2685 (National Center for Advancing Translational Sciences (NCATS), 2010).

The list shows a part of the results. Further columns of the screen follow, without active or inactive calls. Most of these compounds were active or inconclusive in the main read-out, so they are no random draw. Words in brackets tell the shape of the fitted curve; partial curves, single points and poor fits give uncertain potencies.

This test in a line: qHTS Assay for Lipid Storage Modulators in Drosophila S3 Cells.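 For cell number change: cells counted by Cell Tracker Red CMTPX staining in the red channel.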 To be noted: BODIPY lipid droplet fluorescence, 18-24 h; for cell number change: measured here: cell count max response, cells fed with added oleic acid. The essentials: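 Laser-scanning cytometry quantifies lipid droplet accumulation (500–530 nm total intensity; droplet/cell object ratio) in oleic acid-fed (400 uM added) Drosophila S3 cells treated with a concentration series. 20 uM Triacsin C defined 100% inhibition.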
(Quantitative high-throughput screening tests each substance at several concentrations.)

[1] abbreviates: measured here: lipid fluorescence (Fed channel) AC50, cells fed with added oleic acid.
The mark [2] stands for this setting: measured here: cell number channel AC50, cells fed with added oleic acid.

In the case of `COc1ccc(C)cc1NC(=O)CN1C(=O)COc2ccc(S(=O)(=O)N3CCCCC3)cc21`, the cell number change was -5.11%.

Broadly, the AC50 is the midpoint of the concentration-response curve, whichever way the signal moves. Higher therefore signals weaker potency. Consider `O=C(COC(=O)c1ccc([N+](=O)[O-])s1)NCCc1ccccc1`, for which the cell number change was -14.2%. For the same compound, the AC50 under setting [1] is 1.03 µM [falling, full curve, poor fit].

In the case of `NS(=O)(=O)c1ccc(NC(=O)COC(=O)COc2ccccc2)cc1`, the cell number change was -23.4%. In addition, the AC50 under setting [1] was 16.4 µM [rising, single point].

As to `O=C(c1ccc(OC2CCN(CCc3ccccc3)CC2)cc1)N1CCCCC1CCCO` (stereo not given), the cell number change worked out at 20.9%. Besides, under setting [1], the AC50 was 0.651 µM [falling, single point].

For `CCCn1c(C)cc(C(=O)COc2ccc(-c3nnco3)cc2)c1C`, the cell number change is -21.4%. Moreover, under setting [1], the AC50 was 29.1 µM [falling, single point].

Turning to `CC(C)(C)C(=O)Nc1ccc(C(=O)N/N=C/c2ccccc2OC(=O)c2ccc(Cl)cc2Cl)cc1`, the cell number change turned out to be 16.3%. In addition, the AC50 under setting [1] is 6.51 µM [rising, single point].

Regarding `Cn1ccc(-c2ccccc2)c(C#N)c1=O`, the cell number change is 16.4%.

Regarding `CCOC(=O)C1=C(COC(=O)COc2ccccc2C#N)NC(=O)NC1C` (stereo not given), the AC50 under setting [1] was 1.84 µM [falling, partial curve].

In the case of `COc1cc(C(=O)N/N=C/c2ccccn2)cc(OC)c1OC`, the cell number change came to 55.5%. Also, the AC50 under setting [2] was 20.6 µM [rising, single point]. The AC50 under setting [1] is 29.1 µM [rising, single point].

Consider `COc1cccc(-c2c(C(=O)N/N=C/c3ccc(C)s3)nnn2-c2nonc2N)c1`, for which the cell number change worked out at 34.7%.

Regarding `COc1cccc(-c2ccc(NC(=O)C3CCCN(Cc4cnn(C(C)C)c4)C3)cc2)c1` (stereo not given), the cell number change came out at 4.46%. Further, the AC50 under setting [1] was 29.1 µM [rising, single point].

As for `COc1ccc(N(C(=O)CCl)C(C(=O)NCCc2ccccc2)c2cccs2)cc1Cl` (stereo not given), the cell number change was -7.94%. Also, the AC50 under setting [1] was 29.1 µM [falling, single point].

`CCOC(=O)C(NC(=O)Nc1ccccc1)(OCC)C(F)(F)F` (stereo not given): the cell number change is -31.9%. For the same compound, the AC50 under setting [2] is 0.461 µM [falling, full curve, poor fit].

`COCCOC(=O)c1c(NC(=O)COC(=O)Cc2cccc(OC)c2)sc(C(N)=O)c1C`: the AC50 under setting [1] was 2.31 µM [falling, partial curve, poor fit].

As for `CCC(CC)COC(=O)C1=C(C)NC(=O)NC1c1cccc([N+](=O)[O-])c1` (stereo not given), the cell number change is -29.4%. Also, the AC50 under setting [1] is 29.1 µM [falling, single point].

Consider `CCOC(=O)c1cnc(SCC(=O)c2ccc3c(c2)OCCO3)nc1N`, for which the cell number change was determined as 11.2%. For the same compound, the AC50 under setting [1] is 29.1 µM [rising, single point].

Take `CS(=O)(=O)Nc1ccccc1C(=O)NCC1(N2CCCCC2)CCCCC1`: the cell number change turned out to be 33.3%. Also, the AC50 under setting [2] is 32.6 µM [rising, single point].

In the case of `Cc1cc2c(s1)c1cnn(-c3ccccc3)c(=O)c1n2C`, the cell number change turned out to be 28.7%.

As to `O=C1CCCN1c1ccc(CNS(=O)(=O)c2ccc(F)cc2)cc1`, the cell number change was -0.607%. Further, the AC50 under setting [1] is 5.17 µM [falling, full curve, poor fit].

As to `Fc1ccc(-c2cn(-c3ccccc3)c3[n+]2CCS3)cc1`, the cell number change is -0.107%. The AC50 under setting [1] is 0.291 µM [falling, full curve, poor fit].

In the case of `CCNC(=O)CC1SC(=Nc2ccc(C)cc2)N(CC)C1=O` (stereo not given), the cell number change is 8.81%. In addition, the AC50 under setting [1] is 6.51 µM [rising, partial curve].

Take `CC1CCN(CC(=O)Nc2ccc(S(=O)(=O)N3CCCC(C)C3)cc2)CC1` (stereo not given): the cell number change is -2.11%.

In the case of `CCCCN(CC)Cc1c(C)[nH]c2ccccc2c1=O`, the cell number change is -0.391%. Under setting [1], the AC50 is 16.4 µM [falling, single point].

For `CN(C)S(=O)(=O)c1cccc(-c2csc(=Nc3ccccc3)n2CCCN2CCOCC2)c1`, the cell number change amounted to 24.7%. Also, the AC50 under setting [2] is 1.64 µM [rising, partial curve, poor fit]. Besides, the AC50 under setting [1] is 3.66 µM [rising, full curve, poor fit].

As for `Cc1ccc(N2CCN(S(=O)(=O)c3ccc4oc(=O)ccc4c3)CC2)c(C)c1`, the cell number change is -12.4%. Besides, the half-maximal activity concentration (AC50) under setting [1] is 6.51 µM [falling, single point].

As to `CCOC(=O)C1CCCN(Cc2cc(=O)oc3cc(C)ccc23)C1` (stereo not given), the cell number change is -7.14%.

For the compound `Cc1ccc(-n2ncc3c(SCc4ccccn4)ncnc32)c(C)c1`, the cell number change is -34.4%. Moreover, under setting [2], the AC50 was 0.0291 µM [falling, full curve, poor fit].

For the compound `Fc1ccccc1N1CCN(Cc2nc(-c3ccc(Cl)cc3Cl)no2)CC1`, the cell number change turned out to be 5.42%. For the same compound, the AC50 under setting [1] was 20.6 µM [rising, single point].

As to `Cc1ccccc1OCCCC(=O)Nc1ccc(S(=O)(=O)Nc2onc(C)c2C)cc1`, the cell number change came out at 53.8%. Also, the AC50 under setting [2] was 11.6 µM [rising, partial curve].

Regarding `CC(Oc1ccc2c(-c3ccccc3)cc(=O)oc2c1)C(=O)NCC1CCC(C(=O)O)CC1` (stereo not given), the cell number change was found to be 23.6%.

Turning to `O=C(NCCN1CCN(c2ccccc2)CC1)Nc1cccc(Br)c1`, the cell number change was determined as 13.9%.

Take `CCc1cc(C(=O)c2ccccc2)c(N)s1`: the cell number change is -14.4%.

Regarding `CCCOc1ccc2c(C)c(CC(=O)OC)c(=O)oc2c1`, the cell number change was -3.1%. For the same compound, the AC50 under setting [1] is 3.26 µM [rising, partial curve].

For `CCOC(=O)CC(=O)CSc1nc(-c2ccccc2)cc(-c2ccccc2)c1C#N`, the cell number change stood at 5.87%. Besides, the AC50 under setting [1] was 0.366 µM [rising, full curve].

In the case of `COc1ccc(S(=O)(=O)N(C)CC(=O)NCc2cccnc2)cc1C`, the AC50 under setting [1] was 0.58 µM [rising, single point].

Turning to `O=C(Oc1c(-c2ccccc2)oc2ccccc2c1=O)c1ccccc1`, the cell number change was -6.29%. Moreover, the AC50 under setting [1] was 29.1 µM [rising, single point].

As for `Nc1ccc(N2CCN(c3ccccc3)CC2)c(F)c1`, the cell number change is -33.1%. For the same compound, under setting [2], the AC50 is 18.4 µM [falling, partial curve, poor fit].

`COc1cccc(-c2noc(C3CCCN(C(=O)c4ccc(F)cc4)C3)n2)c1` (stereo not given): the cell number change was determined as 19.6%.

With `CCCCCSc1ncccc1C(=O)O`, the cell number change was found to be 11.4%. The concentration at half-maximal activity (AC50) under setting [2] is 0.00517 µM [rising, full curve, poor fit]. For the same compound, the AC50 under setting [1] is 3.66 µM [rising, single point].

As to `CCN(CC)S(=O)(=O)c1ccc2[nH]c(=O)cc(C(=O)NCC3CCCO3)c2c1` (stereo not given), the cell number change was -29.6%. Under setting [2], the AC50 was 1.46 µM [falling, full curve, poor fit]. Under setting [1], the AC50 was 1.84 µM [falling, full curve].

Take `O=C(NCC1CCOCC1)c1cc(COc2cccc(C(F)(F)F)c2)on1`: the AC50 under setting [1] is 6.51 µM [rising, single point].

With `Cc1cc(NCCCN2CCOCC2)n2nc(C)c(-c3ccccc3)c2n1`, the cell number change was 58.4%. Also, under setting [2], the AC50 is 20.6 µM [rising, single point]. Moreover, under setting [1], the AC50 was 6.51 µM [rising, single point].

Turning to `CCn1nc(-c2ccccc2)c2nc3ccccc3nc21`, the cell number change was found to be 12.5%. Also, under setting [1], the AC50 was 13 µM [rising, partial curve, poor fit].

On to `O=C(Nc1ccc(Br)cc1)Nc1cnccn1`, for which the cell number change is -17.7%. For the same compound, the AC50 under setting [1] is 29.1 µM [falling, single point].

With `C#CC(C)(CC)NC(=O)c1cc(OC)c(OC)c(OC)c1` (stereo not given), the cell number change was determined as 25.7%. Moreover, the AC50 under setting [1] was 29.1 µM [rising, single point].

Consider `CC(C)c1ccc(N(C(=O)CNC(=O)c2ccco2)C(C(=O)NC2CCCC2)c2cccnc2)cc1` (stereo not given), for which the cell number change amounted to 24.6%. Besides, the AC50 under setting [1] is 0.164 µM [falling, full curve].

For `CCN(C(=O)C12CC3CC(CC(C3)C1)C2)C1CCS(=O)(=O)C1` (stereo not given), the cell number change was -26%. Also, the AC50 under setting [1] is 23.1 µM [falling, partial curve].

With `CC(C)C(=O)NCCc1nc2ccccc2n1CCCOc1ccc(Cl)cc1`, the cell number change was -48.6%. For the same compound, under setting [2], the AC50 is 25.9 µM [falling, single point]. Under setting [1], the AC50 is 23.1 µM [falling, partial curve].

For `CCN(CC(=O)Nc1c(F)cccc1F)C(=O)Cc1ccccc1`, the cell number change was found to be 24.1%. Also, the AC50 under setting [1] is 16.4 µM [rising, single point].

Regarding `COc1ccc(C(=O)NCC(=O)N2CC=C(c3ccccc3)CC2)cc1OC`, the cell number change came out at 19.7%. Under setting [1], the AC50 is 4.11 µM [rising, full curve, poor fit].

As for `NC1CCCCC1N=Cc1c(O)n(CCc2ccc(F)cc2)c(=O)[nH]c1=O` (stereo not given), the cell number change is -19.9%. Moreover, the AC50 under setting [1] was 0.731 µM [falling, single point].

`COc1ccc(S(=O)(=O)N2CCCCC2)cc1NC(=O)C1COc2ccccc2O1` (stereo not given): the cell number change is -26.9%. The AC50 under setting [1] is 2.59 µM [falling, partial curve, poor fit].

In the case of `C=CCn1cc(/C=C/c2cc[n+](C)cc2)c2ccccc21`, the cell number change was -14.2%. The AC50 under setting [1] is 14.6 µM [falling, partial curve, poor fit].

Turning to `CC(NC(=O)c1ccccc1NC(=O)c1ccccc1)C(=O)N1CCOCC1` (stereo not given), the cell number change is -50%. Moreover, the AC50 under setting [2] was 20.6 µM [falling, single point].

Turning to `O=C(c1ccc2c(c1)N(Cc1ccccc1F)C(=O)c1ccccc1S2)N1CCOCC1`, the cell number change came out at 17.6%. Besides, under setting [1], the AC50 was 6.51 µM [rising, partial curve, poor fit].

As for `Cc1onc(-c2ccccc2)c1C(=O)NNC(=O)c1ccccc1Br`, the cell number change is 15.9%. The AC50 under setting [1] was 7.31 µM [rising, partial curve].

As to `O=C(NC1CCCCC1)C(c1ccccc1)N1CCCC1` (stereo not given), the AC50 under setting [2] was 6.51 µM [rising, single point].

Take `Cc1ccccc1OCC(=O)N/N=C/c1cccn1C`: the cell number change was 30.9%. For the same compound, under setting [2], the AC50 was 2.59 µM [rising, full curve].

For `O=C(c1cc(-c2ccco2)on1)N1CCOCC1`, the cell number change was -11.7%. Also, the AC50 under setting [2] was 3.66 µM [falling, single point].

For the compound `COc1ccc(OC)c(N2C(N)=C(C#N)C(c3ccc(OC)c(O)c3)C3=C2CC(C)(C)CC3=O)c1` (stereo not given), the cell number change worked out at 9.35%. Under setting [1], the AC50 is 0.0259 µM [rising, full curve, poor fit].

For the compound `O=S(=O)(c1ccccc1)N1CCC(c2ccccc2)CC1`, the cell number change is -4.69%. In addition, under setting [1], the AC50 was 0.517 µM [rising, partial curve].

For `CC(C)CC(NC(=O)C1CCC(C)CC1)C(=O)NCCN1CCOCC1` (stereo not given), the cell number change came to 12.6%. For the same compound, under setting [1], the AC50 was 29.1 µM [rising, single point].
